The record followed here is patent US11466240B2, “Microfluidic platform for the rapid production of organoids/spheroids for compound screening” (THE GOVERNING COUNCIL OF THE UNIVERSITY OF TORONTO, priority 2017, dated 2022).

In the data set the test system is multi-cellular spheroids. The data set can be described thus: Penetration and washing out of dye in microgels with multi-cellular spheroids under flow.

On to “Fluorescein isothiocyanate-dextran [FITC-dextran]”, for which the “reduction of mean fluorescence intensity in microgels with spheroids” value runs as follows: (after the first 20 min washing with dye-free medium, 0.1 mL/h) approximately 80%; (during subsequent 50 min washing) approximately 10%.
